Data published in the supplement of paper PMC8728848.
Some of the results follow.

Tests used:
Experiment in all cases: glycan array binding signal (z-score within array); higher = stronger binding
Conditions in all cases: glycan notation: IUPAC condensed, linker removed
Fuc(a1-3)GlcNAc = molecular target: Fuc(a1-3)GlcNAc
Method in brief: (§1)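 Glycan array data were curated from 3228 arrays in the Consortium for Functional Glycomics database and kept only where the protein sequence was available. Glycan names were converted to IUPAC-condensed notation, and columns mapping to the same glycan were averaged. The binding signal is a within-array Z-score, averaged across arrays of the same protein sequence at different concentrations or buffers and across linkers. Negative Z-scores can be read as non-binding.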

[1] = molecular target: Fuc(a1-3)[Gal(b1-4)]Glc6S
Method in brief: as §1

[2] = molecular target: Fuc(a1-3)[Gal(b1-4)]GlcNAc
Method in brief: as §1

[3] = molecular target: Fuc(a1-3)[Gal(b1-4)]GlcNAc(b1-2)Man
Method in brief: as §1

[4] = molecular target: Fuc(a1-3)[Gal(b1-4)]GlcNAc(b1-2)Man(a1-3)[Fuc(a1-3)[Gal(b1-4)]GlcNAc(b1-2)Man(a1-6)]Man(b1-4)GlcNAc(b1-4)GlcNAc
Method in brief: as §1

[5] = molecular target: Fuc(a1-3)[Gal(b1-4)]GlcNAc(b1-2)Man(a1-3)[Fuc(a1-3)[Gal(b1-4)]GlcNAc(b1-2)Man(a1-6)]Man(b1-4)GlcNAc(b1-4)[Fuc(a1-6)]GlcNAc
Method in brief: as §1

[6] = molecular target: Fuc(a1-3)[Gal(b1-4)]GlcNAc(b1-3)Gal(b1-3)[Fuc(a1-4)]GlcNAc
Method in brief: as §1

[7] = molecular target: Fuc(a1-3)[Gal(b1-4)]GlcNAc(b1-3)Gal(b1-4)[Fuc(a1-3)]GlcNAc
Method in brief: as §1

[8] = molecular target: Fuc(a1-3)[Gal(b1-4)]GlcNAc(b1-3)Gal(b1-4)[Fuc(a1-3)]GlcNAc(b1-3)Gal(b1-4)[Fuc(a1-3)]GlcNAc
Method in brief: as §1

[9] = molecular target: Fuc(a1-3)[Gal(b1-4)]GlcNAc(b1-3)GalNAc
Method in brief: as §1

[10] = molecular target: Fuc(a1-3)[Gal(b1-4)]GlcNAc(b1-6)GalNAc
Method in brief: as §1

[11] = molecular target: Fuc(a1-3)[Gal(b1-4)]GlcNAc(b1-6)[Gal(b1-3)GlcNAc(b1-3)]Gal(b1-4)Glc
Method in brief: as §1

[12] = molecular target: Fuc(a1-3)[Gal(b1-4)]GlcNAc6S
Method in brief: as §1

[13] = molecular target: Fuc(a1-3)[Gal3S(b1-4)]Glc
Method in brief: as §1

[14] = molecular target: Fuc(a1-3)[Gal3S(b1-4)]GlcNAc
Method in brief: as §1

[15] = molecular target: Fuc(a1-3)[Gal3S(b1-4)]GlcNAc6S
Method in brief: as §1

[16] = molecular target: Fuc(a1-3)[GalNAc(b1-4)]GlcNAc
Method in brief: as §1

[17] = molecular target: Fuc(a1-3)[GalNAc(b1-4)]GlcNAc6S
Method in brief: as §1

Fuc(a1-4)GlcNAc = molecular target: Fuc(a1-4)GlcNAc
Method in brief: as §1

Fuc(b1-3)GlcNAc = molecular target: Fuc(b1-3)GlcNAc
Method in brief: as §1

Gal(a1-2)Gal = molecular target: Gal(a1-2)Gal
Method in brief: as §1

Gal(a1-3)Gal = molecular target: Gal(a1-3)Gal
Method in brief: as §1

Gal(a1-3)Gal(b1-3)GlcNAc = molecular target: Gal(a1-3)Gal(b1-3)GlcNAc
Method in brief: as §1

[18] = molecular target: Gal(a1-3)Gal(b1-3)GlcNAc(b1-2)Man
Method in brief: as §1

[19] = molecular target: Gal(a1-3)Gal(b1-3)GlcNAc(b1-2)Man(a1-3)[Gal(a1-3)Gal(b1-3)GlcNAc(b1-2)Man(a1-6)]Man(b1-4)GlcNAc(b1-4)GlcNAc
Method in brief: as §1

[20] = molecular target: Gal(a1-3)Gal(b1-3)GlcNAc(b1-3)GalNAc
Method in brief: as §1

[21] = molecular target: Gal(a1-3)Gal(b1-3)GlcNAc(b1-6)GalNAc
Method in brief: as §1

[22] = molecular target: Gal(a1-3)Gal(b1-3)[Fuc(a1-4)]GlcNAc(b1-2)Man(a1-3)[Gal(a1-3)Gal(b1-3)[Fuc(a1-4)]GlcNAc(b1-2)Man(a1-6)]Man(b1-4)GlcNAc(b1-4)GlcNAc
Method in brief: as §1

Gal(a1-3)Gal(b1-4)Glc = molecular target: Gal(a1-3)Gal(b1-4)Glc
Method in brief: as §1

Gal(a1-3)Gal(b1-4)GlcNAc = molecular target: Gal(a1-3)Gal(b1-4)GlcNAc
Method in brief: as §1

[23] = molecular target: Gal(a1-3)Gal(b1-4)GlcNAc(b1-2)Man
Method in brief: as §1

[24] = molecular target: Gal(a1-3)Gal(b1-4)GlcNAc(b1-2)Man(a1-3)[Gal(a1-3)Gal(b1-4)GlcNAc(b1-2)Man(a1-6)]Man(b1-4)GlcNAc(b1-4)GlcNAc
Method in brief: as §1

[25] = molecular target: Gal(a1-3)Gal(b1-4)GlcNAc(b1-3)GalNAc
Method in brief: as §1

[26] = molecular target: Gal(a1-3)Gal(b1-4)GlcNAc(b1-6)GalNAc
Method in brief: as §1

[27] = molecular target: Gal(a1-3)Gal(b1-4)[Fuc(a1-3)]GlcNAc
Method in brief: as §1

[28] = molecular target: Gal(a1-3)Gal(b1-4)[Fuc(a1-3)]GlcNAc(b1-2)Man(a1-3)[Gal(a1-3)Gal(b1-4)[Fuc(a1-3)]GlcNAc(b1-2)Man(a1-6)]Man(b1-4)GlcNAc(b1-4)GlcNAc
Method in brief: as §1

Gal(a1-3)GalNAc = molecular target: Gal(a1-3)GalNAc
Method in brief: as §1

B1: Sp8391B-bot-388-20-388 (Bacteroides ovatus) (protein)
chain: GCQNNDENEQHYDNKLFISASNFTKEILFKAGDTNVETGLSVAIAKPEEHDIKVTMSPAPELLSTYKLAYYDETAVLLSEEHYSMPETSTTIKSGSIVSPELPIEFINTGELDIKTTYVLPVTIKSVEGIGVLQSAKTYYYVFRGASLINVVCNISRNRAYPDFKNDSKFNNLTENTMEILFKANSFPNTLNTLMGIESNYLLRIGDATIPNNQLQVATSVNNCTSADLQLESGKWYHVAVAFNKGNVKVYINGVEKLSGSTGKSSVSLGAKHTNEEDGSRCFWVGYSYKDDRYFDGVVSEVRIWNRALTAEEIQATNHFYTIEPESEGLIAYWKFDEGSGTVAKDYSVSGYDLTIEKEPKWESVSLPQ
glycan array binding signal (z-score) (Fuc(a1-3)GlcNAc): -0.481
glycan array binding signal (z-score) [1]: 0.341
glycan array binding signal (z-score) [2]: 0.177
glycan array binding signal (z-score) [3]: -0.257
glycan array binding signal (z-score) [4]: 0.155
glycan array binding signal (z-score) [5]: 0.98
glycan array binding signal (z-score) [6]: -0.095
glycan array binding signal (z-score) [7]: 0.859
glycan array binding signal (z-score) [8]: -0.3
glycan array binding signal (z-score) [9]: -0.297
glycan array binding signal (z-score) [10]: 4.03
glycan array binding signal (z-score) [11]: -0.595
glycan array binding signal (z-score) [12]: -0.314
glycan array binding signal (z-score) [13]: -0.651
glycan array binding signal (z-score) [14]: -0.709
glycan array binding signal (z-score) [15]: -0.537
glycan array binding signal (z-score) [16]: 0.276
glycan array binding signal (z-score) [17]: -0.385
glycan array binding signal (z-score) (Fuc(a1-4)GlcNAc): -0.039
glycan array binding signal (z-score) (Fuc(b1-3)GlcNAc): -0.126
glycan array binding signal (z-score) (Gal(a1-2)Gal): 0.399
glycan array binding signal (z-score) (Gal(a1-3)Gal): 0.757
glycan array binding signal (z-score) (Gal(a1-3)Gal(b1-3)GlcNAc): 0.784
glycan array binding signal (z-score) [18]: -0.818
glycan array binding signal (z-score) [19]: 0.772
glycan array binding signal (z-score) [20]: -0.341
glycan array binding signal (z-score) [21]: 0.225
glycan array binding signal (z-score) [22]: 8.13
glycan array binding signal (z-score) (Gal(a1-3)Gal(b1-4)Glc): -0.621
glycan array binding signal (z-score) (Gal(a1-3)Gal(b1-4)GlcNAc): -0.489
glycan array binding signal (z-score) [23]: 0.2
glycan array binding signal (z-score) [24]: -0.179
glycan array binding signal (z-score) [25]: -0.389
glycan array binding signal (z-score) [26]: 0.211
glycan array binding signal (z-score) [27]: -0.616
glycan array binding signal (z-score) [28]: 1.6
glycan array binding signal (z-score) (Gal(a1-3)GalNAc): -0.069
